In PubChem BioAssay AID540256 (National Center for Advancing Translational Sciences (NCATS), 2011):
Hit rate of the full screen: of about 300,000 compounds, about 3,700 (1.2%) were called active. The shares of active, inactive and inconclusive entries below differ from those in the screen. Calls come from the whole dose curve; tested in HEK293 cells. Where the call is inconclusive, the potency comes from a doubtful curve fit.

assay: qHTS for Inhibitors of binding or entry into cells for Lassa Virus; conditions: Lassa virus pseudotype entry inhibition, cell reporter; activity change, negative = inhibition: at 37.9 µM (top of the series) unless noted; note: nearly all actives have a fitted effect of over 50% in size
% is set by controls: 0 for no effect and ±100 for the full control effect; potency is the fitted concentration of half-maximal effect.

Compound | Potency | activity change, negative = inhibition
CCOc1ccc(CNC(=O)c2ccc(CS(=O)c3ccccc3)o2)cc1 (centres undefined) | inconclusive: 12.6 µM [inhibitor, partial curve, poor fit] | 
COc1ccc2nc3c(nc2c1)CCCC3 |  | inactive: 19.8%
CCOc1cc(/C=C2\SC(=Nc3ccc(CC)cc3)NC2=O)ccc1OCC(=O)O | inconclusive: 8.91 µM [inhibitor, partial curve, poor fit] | 
O=C(NCc1ccccn1)Nc1cccc(NC(=O)NCc2ccccn2)c1 | inconclusive: 18.3 µM [activator, single point] | 
NS(=O)(=O)c1ccc(CNc2ccc3ccccc3n2)cc1 |  | inactive: 15.3%
COc1ccc(CNC(=O)c2ccc(SC)cc2OC)cc1 |  | inactive: -13.7%
COc1ccc(CN(CC(O)COCc2ccccc2)S(=O)(=O)c2ccccc2Br)cc1 (centres undefined) | inconclusive: 0.007 µM [inhibitor, full curve, poor fit] | 
O=S(=O)(CCN1CCCCC1)Oc1ccc(Cl)cc1Cl |  | inactive: 6.81% [at 46.1 µM]
O=C(N/N=C/c1ccc(-c2ccccc2)o1)c1ccccc1O |  | inactive: 15.9% [at 46.1 µM]
Cc1sc(N/N=C/c2cccs2)nc1-c1ccccc1 | inconclusive: 3.98 µM [inhibitor, full curve, poor fit] | 
CN(C)c1ccc(NS(=O)(=O)c2cc(Cl)ccc2Cl)cc1 | inconclusive: 2.24 µM [inhibitor, full curve, poor fit] | 
CC1CCN(c2oc(-c3cccc4ccccc34)nc2C#N)CC1 | inconclusive: 25.9 µM [activator, single point] | 
Cc1cccc(NC(=O)CSc2nnc(C3CC3)n2CC2CCCO2)c1 (centres undefined) | inconclusive: 35.5 µM [inhibitor, single point] | 
O=C(c1noc2c1CCCC2)N1CCc2c([nH]c3ccccc23)C1c1ccccn1 (centres undefined) |  | inactive: -19.2%
CCc1nnc(NS(=O)(=O)c2ccc(N/C=C\C(=O)c3ccc(C)cc3)cc2)s1 |  | inactive: -11%
COc1nc(Nc2ccc(C(C)C)cc2)nc(OC)n1 | inconclusive: 20.6 µM [activator, single point] | 
Cc1oc(/N=C/c2ccc3c(c2)OCO3)c(C#N)c1C |  | inactive: 3.82%
COc1ccc(/C=N/NC(=S)Nc2cc(C(F)(F)F)ccc2Cl)cc1 | inconclusive: 20 µM [inhibitor, partial curve, poor fit] | 
Cc1cccc2c1NC(=O)/C2=C\C(=O)c1cccs1 | inconclusive: 35.5 µM [inhibitor, single point] | 
O=C(NCCc1ccc(Cl)cc1)c1ccc(CS(=O)(=O)Cc2ccccc2F)o1 | inconclusive: 35.5 µM [inhibitor, single point] | 
Nc1cccc2c(O)cccc12 |  | inactive: -5.17%
Cn1c(Oc2ccc(F)cc2)nc2c1c(=O)n(Cc1ccccc1Cl)c(=O)n2C | inconclusive: 35.5 µM [inhibitor, single point] | 
COc1ccc(Cl)cc1NC(=S)NCCc1ccc(S(N)(=O)=O)cc1 | inconclusive: 35.5 µM [inhibitor, single point] | 

Compound | Potency | activity change, negative = inhibition
Cc1ccc2nc(NC(=O)c3cc(=O)c4cc(Cl)ccc4o3)sc2c1 | inconclusive: 10 µM [activator, partial curve] | 
CC1(C)C2([N+](=O)[O-])CN(CCO)CC1([N+](=O)[O-])CN(CCO)C2 | inconclusive: 0.282 µM [activator, partial curve, poor fit] | 
CSc1ccc(CNC(=O)c2cc3c(=O)n(Cc4ccco4)ccc3nc2C)cc1 | inconclusive: 35.5 µM [inhibitor, single point] | 
COc1ccc(CCC(=O)Nc2ccc(Cl)c(S(=O)(=O)N3CCOCC3)c2)cc1OC | inconclusive: 20 µM [inhibitor, single point] | 
CCOC(=O)C1CCCN(Cc2ccc(OCC)cc2)C1 (centres undefined) |  | inactive: 7.54%
CSc1ccccc1OCc1cc(C(=O)N2CCc3[nH]cnc3C2c2ccccn2)no1 (centres undefined) |  | inactive: 2.3%
CCC(CC)NC(=O)CC(c1ccccc1)c1ccccc1 | inconclusive: 29.1 µM [activator, single point] | 
COCCCNC(=S)Nc1cccc2ncccc12 | inconclusive: 10 µM [inhibitor, partial curve, poor fit] | 
COC(=O)Nc1nc2ccc(C(=O)c3cccs3)cc2[nH]1 | inconclusive: 1.64 µM [inhibitor, partial curve, poor fit] | 
COc1ccc(C(=O)COC(=O)CNC(=O)c2cccc(OC(F)F)c2)cc1 |  | inactive: 10.6%
CC1CCN(Cc2c(C(=O)N/N=C/c3ccc(OC(C)C)cc3)nnn2-c2nonc2N)CC1 |  | inactive: 2.18%
CCOc1ccc(C(C(=O)NC2CCCCC2)N(C(=O)Cc2cccs2)c2ccc(-n3cnnn3)c(OC)c2)cc1 (centres undefined) | inconclusive: 7.94 µM [inhibitor, partial curve] | 
CN1CCN(S(=O)(=O)c2ccc3c(c2)OCCO3)CC1 | inconclusive: 5.01 µM [inhibitor, single point] | 
Fc1ccc(-c2nnn(Cc3ccc(F)cc3Cl)n2)cc1 |  | inactive: 16.7%
COc1ccc(NC(=O)c2cccc(S(=O)(=O)N(C)c3ccccc3)c2)cn1 | inconclusive: 35.5 µM [inhibitor, partial curve, poor fit] | 
COc1ccc(OC)c(NC(=O)COC(=O)c2c3c(nc4ccccc24)CCCC3)c1 | active: 20.6 µM | 
O=S(NC1CCCCC1)C12CC3CC(CC(C3)C1)C2 (centres undefined) | inconclusive: 4.11 µM [activator, single point] | 
N#Cc1cc(-c2ccccc2)nn1-c1ccccc1 |  | inactive: 21%
COc1ccc(Cn2c(O)c(C=Nc3ccc(O)cc3)c3ccccc3c2=O)cc1 | inconclusive: 7.31 µM [inhibitor, partial curve] | 
CCN1C(=O)C(CC(=O)Nc2ccc(F)cc2)N(CCCN2CCN(c3ccc(F)cc3)CC2)C1=S (centres undefined) | inconclusive: 35.5 µM [inhibitor, single point] | 
CCNc1nc(C23CC4CC(CC(C4)C2)C3)cs1 | inconclusive: 14.1 µM [inhibitor, single point] | 
O=C(COc1cccnc1[N+](=O)[O-])N1CCN(S(=O)(=O)c2ccc3ccccc3c2)CC1 | inconclusive: 7.31 µM [activator, partial curve, poor fit] | 
COc1ccc(OC)c(/C=N/NC(=O)C(=O)N2CCCCCC2)c1 |  | inactive: -19.3%

In a second layout: 4 of the compounds above.
Compound,Potency,"activity change, negative = inhibition"
CCC(CC)NC(=O)CC(c1ccccc1)c1ccccc1,"inconclusive: 29.1 µM [activator, single point]",
COCCCNC(=S)Nc1cccc2ncccc12,"inconclusive: 10 µM [inhibitor, partial curve, poor fit]",
COC(=O)Nc1nc2ccc(C(=O)c3cccs3)cc2[nH]1,"inconclusive: 1.64 µM [inhibitor, partial curve, poor fit]",
COc1ccc(C(=O)COC(=O)CNC(=O)c2cccc(OC(F)F)c2)cc1,,inactive: 10.6%

The list continues.

Compound | Potency | activity change, negative = inhibition
CN(C)S(=O)(=O)c1ccc(N2CCCC2)c(C(=O)Nc2nc(-c3cc(F)ccc3F)cs2)c1 |  | inactive: -0.0726%
CCOc1ccc(OCc2cccc(C(=O)O)c2)cc1 | inconclusive: 0.231 µM [inhibitor, full curve, poor fit] | 
CCOC(=O)C1CCC(CN(Cc2c(Cl)cccc2Cl)S(=O)(=O)c2ccc(F)cc2)CC1 (centres undefined) | inconclusive: 2.82 µM [inhibitor, full curve] | 
CCCN1CCN(c2ncnc3scc(C4COc5ccccc5O4)c23)CC1 (centres undefined) | inconclusive: 10 µM [inhibitor, single point] | 
O=C(CSc1nnc(C2CCCCC2)o1)Nc1ccccc1Cl | inconclusive: 3.55 µM [activator, single point] | 
CCc1nnc(SCc2nc(-c3ccc(OC)cc3)oc2C)c2cc3sccc3n12 |  | inactive: 17.6% [at 46.1 µM]
COc1cccc(-c2nn(C)c3sc(C(=O)N4CCN(c5cccc(C)c5)C(C)C4)cc23)c1 (centres undefined) | inconclusive: 7.08 µM [inhibitor, partial curve, poor fit] | 
CC(=O)Nc1ccc(NC(=O)C(Sc2ccccc2)c2ccccc2)cc1 (centres undefined) |  | inactive: -3.78% [at 46.1 µM]
Cc1ccc(C(=O)OCC(=O)NC2CCCCCC2)c(C)c1 | inconclusive: 8.91 µM [inhibitor, partial curve, poor fit] | 
O=C(CNS(=O)(=O)c1ccccc1)N1CCN(Cc2ccccc2)CC1 |  | inactive: 5.2%
COc1ccc(C(=O)N(CC2CCCO2)C(C(=O)NCCC(C)C)c2ccc(C)cc2)cc1OC (centres undefined) | inconclusive: 13 µM [inhibitor, partial curve] | 
C=CCn1c(SCC(=O)/C(C#N)=C(\C)N)nnc1C1CCCCC1 | inconclusive: 4.11 µM [activator, full curve, poor fit] | 
Cc1ccc([C@H]2C[C@H](O)[C@@H](n3cc(C4CC4)nn3)CN2C(=O)C2CCCCC2)cc1 | inconclusive: 7.91 µM [activator, single point] | 
CC(=O)NN1C(=O)/C(=C2/Sc3ccc(Cl)cc3N2C)SC1=S | inconclusive: 1.26 µM [inhibitor, single point] | 
Cc1cc(C)c2c(CN3CCN(C/C=C/c4ccccc4)CC3)cc(=O)oc2c1 |  | inactive: -9.56%
Cc1cccc(N(CC(=O)NCCSc2ccc(Cl)cc2)S(=O)(=O)c2ccccc2)c1C | inconclusive: 14.1 µM [inhibitor, single point] | 
CCOC(=O)C1CCN(C(=O)Cn2ncc3c([nH]c4ccc(C)cc43)c2=O)CC1 | inconclusive: 35.5 µM [activator, single point] | 
Cc1cccc(N/C=C/C(=O)c2cccs2)c1C | inconclusive: 12.6 µM [inhibitor, single point] | 
Cc1cc2c(N=NC(=O)CCc3ccccc3)c(O)[nH]c2cc1Br | inconclusive: 2.82 µM [inhibitor, full curve, poor fit] | 
CCc1ccc(NC(=O)CSc2nc3ccccc3c(=O)n2CCCN2CCC(C)CC2)cc1 | inconclusive: 17.8 µM [inhibitor, single point] | 
Cc1ccc(/C(O)=C2/C(=O)C(=O)N(CCN3CCOCC3)C2c2cccs2)cc1 (centres undefined) |  | inactive: -0.461%
CC(=O)N1CCC2(CC1)OC(=O)C(C)=C2C(=O)Nc1ccccc1C(F)(F)F | inconclusive: 35.5 µM [activator, single point] | 
COC(=O)c1ccc(CO/N=C/c2cccc([N+](=O)[O-])c2)cc1 |  | inactive: -0.961%
